Reference: PubChem BioAssay AID2685 (National Center for Advancing Translational Sciences (NCATS), 2010)
Some of the results follow. The main result of the screen is listed elsewhere. These columns were measured beside it and carry no call. Most of these compounds were active or inconclusive in the main read-out, so they are no random draw. The note in brackets gives the kind of curve behind each potency; many fits are weak.

Assay: qHTS Assay for Lipid Storage Modulators in Drosophila S3 Cells;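 on cell number change: cells counted by Cell Tracker Red CMTPX staining in the red channel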
Conditions: BODIPY lipid droplet fluorescence, 18-24 h; for cell number change: measured here: cell count max response, cells fed with added oleic acid
Outline: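 Laser-scanning cytometry quantifies lipid droplet accumulation (500–530 nm total intensity; droplet/cell object ratio) in oleic acid-fed (400 uM added) Drosophila S3 cells treated with a concentration series. 20 uM Triacsin C defined 100% inhibition.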

[1] = measured here: lipid fluorescence (Fed channel) AC50, cells fed with added oleic acid
[2] = measured here: cell number channel AC50, cells fed with added oleic acid

SMILES | cell number change | AC50 [1] | AC50 [2]
CSCCC(=O)N1CCCC(N2CCN(c3cccc(C(F)(F)F)c3)CC2)C1 (stereo not drawn) | 2.85% | 1.16 µM [rising, full curve, poor fit] | 
O=C(O)c1cccc(-n2c(-c3cnccn3)n[nH]c2=S)c1 | -33.7% | 29.1 µM [falling, single point] | 18.4 µM [falling, single point]
Cc1ccc(C(C(=O)NC2CCCCC2)N(C(=O)Cc2c[nH]c3ccccc23)c2ccccc2)o1 (stereo not drawn) | 4.6% |  | 
CN1CCN(S(=O)(=O)c2ccc(NC(=S)NC(=O)C(C)(C)C)cc2)CC1 | -7.52% | 29.1 µM [falling, single point] | 
O=C1CCC(O)CCN1CCSc1ccccc1 (stereo not drawn) | -9.71% | 0.00461 µM [rising, full curve, poor fit] | 
COc1ccc(CCN2CCCn3c2nc2c3c(=O)n(CC(C)C)c(=O)n2C)cc1OC | -32.6% | 29.1 µM [falling, single point] | 20.6 µM [falling, single point]
COc1ccc(-c2n[nH]c(C)c2-c2ccc(OC)c(OC)c2)c(O)c1 | 75.2% | 10.3 µM [rising, partial curve] | 0.82 µM [rising, full curve]
CC1(C)CC(=O)C(CO)=C(c2cccc3ccccc23)C1=O | -2.13% | 1.64 µM [rising, partial curve, poor fit] | 
CC(Oc1cccc(Cl)c1)C(=O)Nc1cc(Cl)ccc1N1CCOCC1 (stereo not drawn) | -28% | 0.146 µM [rising, full curve, poor fit] | 
COC(=O)c1c(NC(=O)CN2CCCc3ccccc32)sc(C)c1C | 3.5% | 1.84 µM [rising, partial curve] | 
Cc1ccc(NC(=O)c2cccnc2)cc1S(=O)(=O)N1CCOCC1 |  | 3.66 µM [rising, partial curve] | 
c1ccc(-c2ncc(CSc3nncn3-c3ccccc3)s2)cc1 |  | 1.46 µM [rising, partial curve] | 0.82 µM [rising, partial curve]
CCCCOC(=O)C1=C(C)Nc2nnnn2C1c1ccccc1Cl (stereo not drawn) | -58.2% | 6.51 µM [rising, single point] | 29.1 µM [falling, single point]
CCC(=O)Oc1ccc(/C(CC)=C(\CC)c2ccc(OC(=O)CC)cc2)cc1 | 3.19% | 0.461 µM [falling, single point] | 0.259 µM [falling, full curve, poor fit]
C=CCOc1ccc(/C=N/n2cncn2)cc1OC | 108% |  | 18.4 µM [rising, partial curve]

2 of these compounds in another layout:
SMILES	cell number change	AC50 [1]	AC50 [2]
COC(=O)c1c(NC(=O)CN2CCCc3ccccc32)sc(C)c1C	3.5%	1.84 µM [rising, partial curve]	
Cc1ccc(NC(=O)c2cccnc2)cc1S(=O)(=O)N1CCOCC1		3.66 µM [rising, partial curve]	
